Source: patent US12421279B2 (priority 2016, dated 2025)

Experiment: general procedure: Fmoc solid-phase peptide synthesis; rink amide resin (100-200 mesh, 0.53 meq/g); DIC/OxymaPure
Details: whole synthesis, overall

With “(3S,6S,14S,17S,20S,24S,25aS)-3-((1H-indol-3-yl)methyl)-14-amino-17-(2-amino-2-oxoethyl)-20-((S)-sec-butyl)-1,4,12,15,18,21-hexaoxo-24-(4-(4-(thiophen-2-yl)phenyl)-1H-1,2,3-triazol-1-yl)tetracosahydro-1H-pyrrolo[2,1-f][1,4, 7,10,13,18]hexaazacyclotricosine-6-carboxamide” the isolated yield was 55%.
